The target in experiment [1] is Pyrococcus furiosus archaeoferritin (product of gene PF1196) (Pyrococcus furiosus) (UniProt Q8U1L0). In words: SEC; AFR loaded aerobically with more than 2 Fe(III) ions per monomer; 48 μM (monomer); Superdex 200, 100 mM MOPS pH 7.0; read at 280 and 315 nm; both purified. (In general: In gel filtration, larger molecules generally elute earlier.)
For experiment [2] the target is unchanged. The experiment can be described thus: dynamic light scattering; as-isolated AFR loaded with 0, 10, 30 and 50 Fe(III) ions per monomer at 55 °C; measured at 25 °C; both purified.

These are yes or no findings as the source states them, for the method shown. Some binding calls cover weakened binding; strength is not graded here.

B1: Pyrococcus furiosus archaeoferritin (product of gene PF1196) (protein, UniProt Q8U1L0 1-184)
chain: MDIEEEIVKKLENLSIKEILGYAIASEEDAEKFYSELATKLGGLLKEFFTQLSTAERGHKEILLRIYKSKFGDENYPVPEGIPFAETTIKVETVRNLIEAMKIALTNEKTAERVYKYLAEKMPEHREIFKFLATQERSHYESLRAHKEFLEDTVESKPEYIEAPPTYISSQLEIPFGPEYRGAR
Regarding B1, the binding result in experiment [1] and in experiment [2] was “binds” throughout.
